Reference: the supplement of paper PMC12889115
Some of the results follow. These are raw signals, not scaled to a control.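 Primary screen: polymyxin B was added at a level permeabilizing Salmonella outer membranes while sparing inner membranes. DMSO wells, both with and without polymyxin B, established maximum growth. Plate-to-plate variation meant each plate was ranked on its own, and the lowest-OD600 compounds were selected as hits.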

Tested on: Salmonella enterica serovar Typhimurium SL1344
Test: bacterial growth OD600 after 18 h with compound and polymyxin B; higher = more bacterial growth (less inhibition)
Conditions: 50 µM, Mueller-Hinton broth

| SMILES | bacterial growth OD600 (polymyxin B 0.75 µg/mL) | bacterial growth OD600 (polymyxin B 1 µg/mL) |
| --- | --- | --- |
| COC(=O)c1cc(CNC(=O)c2ccccc2OC)cc(NC(=O)c2ccco2)c1 | 0.871 | – |
| Cc1n[nH]c(SCCNC(=O)c2csc3nc(-c4ccccc4)cn23)n1 | 0.767 | – |
| COC(=O)CCC(=O)N1CCCC(N2CCN(Cc3ccc4c(c3)OCO4)CC2)C1 (configuration not stated) | – | 1 |
| CN(Cc1ccc(F)cc1)c1ccc(OCC(=O)N2CCc3nc[nH]c3C2c2ccccn2)nn1 (configuration not stated) | 0.887 | – |
| COc1ccc(C(CC(=O)NCc2cccnc2)c2ccccc2)cc1 (configuration not stated) | – | 0.813 |
| COc1cccc(-c2cn3c(C(=O)N4CCC[C@H]4C(N)=O)csc3n2)c1 | – | 0.915 |
| Cc1cccc(NC(=O)CCC2CCN(C(=O)CCOc3ccccc3)CC2)c1 | – | 0.638 |
| Cc1ncoc1C(=O)N1CCCCC1C(=O)Nc1ccc(Oc2ccccc2F)cc1 (configuration not stated) | – | 0.749 |
| COc1cc(CC2(CCC(=O)N(C)Cc3ccc4nsnc4c3)CCC(=O)N2)ccc1F (configuration not stated) | 0.798 | – |
| COc1ccc(NC2CCCN(C(=O)c3cccc(C(F)(F)F)c3)C2)cc1OC (configuration not stated) | – | 1.03 |
| COc1cccc(-c2ccc(NC(=O)C3CCCN(Cc4nccs4)C3)cc2)c1 (configuration not stated) | – | 0.876 |
| COc1ccc(CN2CCC(n3nccc3NC(=O)c3cccc(F)c3)CC2)c(F)c1 | 0.487 | – |
| O=C1OCCCN1CCNc1ccc(-c2nc(Cc3ccccc3)no2)cn1 | 0.828 | – |
| CC(C)c1noc(-c2ccc(N3CCN(Cc4ccccn4)CC3)nc2)n1 | – | 0.991 |
| COc1cc(F)ccc1CN1CCC(C2CCN(Cc3cccnc3)CC2)C1 (configuration not stated) | 0.981 | – |
| O=C(CCCc1ccccc1)Nc1ccnn1C1CCN(C(=O)C2CC2)CC1 | 0.789 | – |
| COc1ccc(N2C(=O)CN(C(=O)c3nc(C)c[nH]3)CC2(C)C)cc1 | 0.886 | – |
| CCOC(=O)N1CCN(C(=O)CN2Cc3cc(Cl)ccc3OC(C)C2)CC1 (configuration not stated) | 1.03 | – |
| O=C(c1cccnc1)N1CCCC(CCc2cccc(F)c2)C1 (configuration not stated) | 0.06 | – |
| CCCN1CCC(NC(C)c2cnc(-c3ccncc3)nc2C)CC1 (configuration not stated) | – | 0.987 |
| CN(Cc1cccc2cnccc12)C(=O)c1cc(COc2cccc(F)c2)[nH]n1 | – | 0.911 |
| CCOC(=O)C1(CCCc2ccccc2)CCCN(C(=O)c2cc(C)nc(N)n2)C1 (configuration not stated) | – | 1.18 |

Record cards, from the list above.
Cc1n[nH]c(SCCNC(=O)c2csc3nc(-c4ccccc4)cn23)n1 in the list: bacterial growth OD600 (polymyxin B 0.75 µg/mL): 0.767
COc1ccc(CN2CCC(n3nccc3NC(=O)c3cccc(F)c3)CC2)c(F)c1 in the list: bacterial growth OD600 (polymyxin B 0.75 µg/mL): 0.487
